The list shows a part of the results. These are raw signals, not scaled to a control.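 Primary screen: polymyxin B was added at a level permeabilizing Salmonella outer membranes while sparing inner membranes. DMSO wells, both with and without polymyxin B, established maximum growth. Plate-to-plate variation meant each plate was ranked on its own, and the lowest-OD600 compounds were selected as hits.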
Tested on: Salmonella enterica serovar Typhimurium SL1344
Assay: bacterial growth OD600 after 18 h with compound and polymyxin B; higher = more bacterial growth (less inhibition)
Conditions: 50 µM, Mueller-Hinton broth

Structure (SMILES)	bacterial growth OD600 (polymyxin B 0.75 µg/mL)	bacterial growth OD600 (polymyxin B 1 µg/mL)
CN(C)S(=O)(=O)Nc1ccc(N2CCC(NCC3(c4ccccc4)CCOCC3)CC2)cc1	0.866	
CC(=O)NC(C(=O)N1CCC(C(Cc2ccccc2C)N(C)C(=O)Cn2cccn2)CC1)C(C)C (centres undefined)	0.883	
COc1cccc(CC2=NOC(C(=O)NCc3ccc(F)c(F)c3)C2)c1 (centres undefined)	0.742	
COCCN(C)C(=O)c1coc(COc2ccc(F)cc2Cl)n1		1.13
CC(=O)N1CCCC1C(=O)Nc1cccc(-n2cccn2)c1 (centres undefined)		0.803
CCOC(=O)C1(CCOc2ccccc2)CCCN(C(=O)c2ccc(OC)o2)C1 (centres undefined)		0.728
COc1cccc(-c2noc(-c3ccc(NCc4ccccc4)nc3)n2)c1OC	0.871	
COc1ccccc1C1CN(CCNC(=O)c2cc(C)[nH]n2)Cc2ccccc2O1 (centres undefined)	0.845	
COc1ccc(-n2ccnc2CN2CCCC(CCC(=O)N3CCOCC3)C2)cc1 (centres undefined)		1.03
c1ccc(CC2CN(Cc3nc4c(s3)CCCC4)CCO2)cc1 (centres undefined)	0.662	
CCn1ccnc1CN(C)CC1CCN(CCc2ccc(OC)cc2)CC1		1.1
CCOC(=O)N1CCN(C(=O)c2ccc(N3CCC(NCc4cc(F)cc(F)c4)CC3)cc2)CC1	0.821	
COC(=O)[C@@H](NC(=O)c1cc(OC)ccc1OC1CCN(C(=O)C2CC2)CC1)C(C)C		1.24
CCCCN(C)C(=O)C1CCC(=O)N(CCc2cccc(F)c2)C1 (centres undefined)		0.944
COc1ccc(CNC(=O)C2CCCN(c3nc(C)c4ccc(S(C)(=O)=O)cc4n3)C2)c(OC)c1 (centres undefined)	0.862	
COCCN1C(=O)CC(CC(=O)N2CCN(Cc3ccccc3)CC2)(c2ccccc2F)C1=O (centres undefined)	0.819	
Fc1cccc(CN2CCOc3ccc(CN4CCC(Oc5cccnc5)CC4)cc3C2)c1F	0.007	
CCOC(=O)C1(Cc2cccc(OC)c2)CCCN(Cc2ccc(NC(C)=O)cc2)C1 (centres undefined)		0.792
O=C(Nc1ccnn1C1CCN(C(=O)c2cc3ccccc3o2)CC1)C1CCOC1 (centres undefined)		0.861

An excerpt from above in order of count of non-hydrogen atoms, rising:
Structure (SMILES)	bacterial growth OD600 (polymyxin B 0.75 µg/mL)	bacterial growth OD600 (polymyxin B 1 µg/mL)
CCOC(=O)C1(CCOc2ccccc2)CCCN(C(=O)c2ccc(OC)o2)C1 (centres undefined)		0.728
CCOC(=O)C1(Cc2cccc(OC)c2)CCCN(Cc2ccc(NC(C)=O)cc2)C1 (centres undefined)		0.792
COc1ccc(CNC(=O)C2CCCN(c3nc(C)c4ccc(S(C)(=O)=O)cc4n3)C2)c(OC)c1 (centres undefined)	0.862	
